Reference: the supplement of paper PMC7125110
± gives the standard error. Many entries were measured with a wide error.

B1: glmS ribozyme (parent)
chain: AUAAAAGCGCCAGAACUACAGAAAUGUAGUUGACGAGGAGGAGGUUUAUCGAAUUUUCGGCGGAUGCCUCCAAA

Variants of: B1
Assay: self-cleavage kobs at 10000 uM GlcN6P; higher = faster cleavage; RNA array
Conditions: with glucosamine-6-phosphate
Procedure, shortened: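 kcat and KM were obtained from weighted Michaelis–Menten fits across concentrations of kobs values. Those came from one- or two-exponential decay fits to per-tile medians normalised to baseline and to non-cleaving reference variants. The variants were barcoded ribozymes transcribed in situ by E. coli RNA polymerase on sequenced MiSeq chips and tracked through a hybridised Cy3 probe at 37 °C, with 40 μM to 10 mM glucosamine-6-phosphate in HEPES/KCl/Mg(OAc)2 buffer flowed in.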
U47G A53C C58A was tested, and the “self-cleavage kobs at 10000 uM GlcN6P” value was 3.14e-05 ± 1.8e-05 s⁻¹.
U47G U54G G62U C67G C70A was tested, and the “self-cleavage kobs at 10000 uM GlcN6P” value was 3.35e-05 ± 2.1e-05 s⁻¹.
A48C U65C was tested, and the “self-cleavage kobs at 10000 uM GlcN6P” value was 3.15e-05 ± 1.6e-05 s⁻¹.
A48G C58G was tested, and the “self-cleavage kobs at 10000 uM GlcN6P” value was 2.63e-05 ± 1.4e-05 s⁻¹.
With A48G G59U the “self-cleavage kobs at 10000 uM GlcN6P” value was 3.02e-05 ± 1.8e-05 s⁻¹.
With A48G U54A C61U the “self-cleavage kobs at 10000 uM GlcN6P” value was 3.08e-05 ± 2.5e-05 s⁻¹.
A48G U65A C70U was tested, and the “self-cleavage kobs at 10000 uM GlcN6P” value was 2.71e-05 ± 1.5e-05 s⁻¹.
A48U C50G C67A C68U was tested, and the “self-cleavage kobs at 10000 uM GlcN6P” value was 2.31e-05 ± 2.2e-05 s⁻¹.
In the case of U49A A53G, the “self-cleavage kobs at 10000 uM GlcN6P” value is reported as 1.68e-05 ± 1.2e-05 s⁻¹.
U49A U56A C70A C71U was tested, and the “self-cleavage kobs at 10000 uM GlcN6P” value was 2.43e-05 ± 2.3e-05 s⁻¹.
U49G A52U was tested, and the “self-cleavage kobs at 10000 uM GlcN6P” value was 1.5e-05 ± 1.1e-05 s⁻¹.
For U49G A53U U56A C67A C70A, the “self-cleavage kobs at 10000 uM GlcN6P” value was 3.42e-05 ± 2e-05 s⁻¹.
In the case of C50A C58G U65G C68A C71G, the “self-cleavage kobs at 10000 uM GlcN6P” value is reported as 2.5e-05 ± 1.8e-05 s⁻¹.
In the case of C50A C68G, the “self-cleavage kobs at 10000 uM GlcN6P” value is reported as 1.4e-05 ± 1.2e-05 s⁻¹.
C50A C70U C71G was tested, and the “self-cleavage kobs at 10000 uM GlcN6P” value was 2.9e-05 ± 1.7e-05 s⁻¹.
For C50A G63U C70G, the “self-cleavage kobs at 10000 uM GlcN6P” value was 2.2e-05 ± 2.2e-05 s⁻¹.
With C50A U56G C70A the “self-cleavage kobs at 10000 uM GlcN6P” value was 2.17e-05 ± 1.3e-05 s⁻¹.
C50G C61U C70G was tested, and the “self-cleavage kobs at 10000 uM GlcN6P” value was 2.02e-05 ± 1.7e-05 s⁻¹.
For C50G G62U U65G, the “self-cleavage kobs at 10000 uM GlcN6P” value was 2.12e-05 ± 2e-05 s⁻¹.
For C50G G63A, the “self-cleavage kobs at 10000 uM GlcN6P” value was 1.67e-05 ± 1.3e-05 s⁻¹.
C50G U57A G63U A64U was tested, and the “self-cleavage kobs at 10000 uM GlcN6P” value was 2.24e-05 ± 1.7e-05 s⁻¹.
In the case of C50U C70G, the “self-cleavage kobs at 10000 uM GlcN6P” value is reported as 1.24e-05 ± 1.1e-05 s⁻¹.
In the case of C50U G62A C70A, the “self-cleavage kobs at 10000 uM GlcN6P” value is reported as 2.12e-05 ± 1.8e-05 s⁻¹.
For A52G U69G, the “self-cleavage kobs at 10000 uM GlcN6P” value was 2.37e-05 ± 1.3e-05 s⁻¹.
In the case of A53U C68A, the “self-cleavage kobs at 10000 uM GlcN6P” value is reported as 1.52e-05 ± 1.2e-05 s⁻¹.
For A53U U65C C71A, the “self-cleavage kobs at 10000 uM GlcN6P” value was 3.46e-05 ± 2.9e-05 s⁻¹.
U54A C70A was tested, and the “self-cleavage kobs at 10000 uM GlcN6P” value was 0.00125 ± 0.0009 s⁻¹.
For U55C C61U, the “self-cleavage kobs at 10000 uM GlcN6P” value was 2.49e-05 ± 1.4e-05 s⁻¹.
U55C G60A was tested, and the “self-cleavage kobs at 10000 uM GlcN6P” value was 1.32e-05 ± 1.2e-05 s⁻¹.
In the case of U55C U57G, the “self-cleavage kobs at 10000 uM GlcN6P” value is reported as 3.57e-05 ± 1.9e-05 s⁻¹.
In the case of U55G C61A G66C C70A, the “self-cleavage kobs at 10000 uM GlcN6P” value is reported as 3.37e-05 ± 1.8e-05 s⁻¹.
With U55G U57A C70A the “self-cleavage kobs at 10000 uM GlcN6P” value was 2.81e-05 ± 1.6e-05 s⁻¹.
With U55G U57C G66C C70G C71A the “self-cleavage kobs at 10000 uM GlcN6P” value was 2.97e-05 ± 1.6e-05 s⁻¹.
U56A C68A was tested, and the “self-cleavage kobs at 10000 uM GlcN6P” value was 1.81e-05 ± 1.1e-05 s⁻¹.
For U56C G59A, the “self-cleavage kobs at 10000 uM GlcN6P” value was 2.07e-05 ± 1.1e-05 s⁻¹.
With U56C G66U C70U the “self-cleavage kobs at 10000 uM GlcN6P” value was 2.59e-05 ± 1.8e-05 s⁻¹.
For U56G U69C C70A, the “self-cleavage kobs at 10000 uM GlcN6P” value was 3.12e-05 ± 2.3e-05 s⁻¹.
In the case of U57A U65A, the “self-cleavage kobs at 10000 uM GlcN6P” value is reported as 2.34e-05 ± 2.1e-05 s⁻¹.
With C58A A64G C71A the “self-cleavage kobs at 10000 uM GlcN6P” value was 2.39e-05 ± 2.1e-05 s⁻¹.
C58G A64G C68A was tested, and the “self-cleavage kobs at 10000 uM GlcN6P” value was 2.7e-05 ± 1.6e-05 s⁻¹.
C58G C67U C71G was tested, and the “self-cleavage kobs at 10000 uM GlcN6P” value was 2.46e-05 ± 1.7e-05 s⁻¹.
In the case of C58G C71G, the “self-cleavage kobs at 10000 uM GlcN6P” value is reported as 1.85e-05 ± 1.6e-05 s⁻¹.
C58G G66C was tested, and the “self-cleavage kobs at 10000 uM GlcN6P” value was 2.13e-05 ± 1.2e-05 s⁻¹.
G60A A64G was tested, and the “self-cleavage kobs at 10000 uM GlcN6P” value was 1.97e-05 ± 1e-05 s⁻¹.
With U65G C67A C70G the “self-cleavage kobs at 10000 uM GlcN6P” value was 1.77e-05 ± 1.4e-05 s⁻¹.
C68G C71G was tested, and the “self-cleavage kobs at 10000 uM GlcN6P” value was 1.8e-05 ± 9.7e-06 s⁻¹.
